# Some of the results follow.
# B1: Erv46-EDTA (Saccharomyces cerevisiae), P39727 (protein)
# chain: MKFLVNVALVFMVVYISYIYAAAPEHHHHHHDYDIPTTENLYFQGAMDSVVTRPQLVVDRDRHAKLELNMDVTFPSMPCDLVNLDIMDDSGEMQLDILDAGFTMSRLNSEGRPVGDATELHVGGNGDGTAPVNNDPNYCGPCYGAKDQSQNENLAQEEKVCCQDCDAVRSAYLEAGWAFFDGKNIEQCEREGYVSKINEHLNEGCRIKGSAQINRIQGNLHFAPGKPYQNAYGHFHDTSLYDKTSNLNFNHIINHLSFGKPIQSHSKLLGNDKRHGGAVVATSPLDGRQVFPDRNTHFHQFSYFAKIVPTRYEYLDNVVIETAQFSATFHSRPLAGGRDKDHPNTLHVRGGIPGMFVFFEMSPLKVINKEQ
# What was measured:
# Assay in all cases: glycan array binding signal (z-score within array); higher = stronger binding
# Settings in all cases: glycan notation: IUPAC condensed, linker removed
# Fuc(a1-2)Gal = molecular target: Fuc(a1-2)Gal
# In short: (§1)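 The binding signal is a Z-score computed within each array. Data were drawn from 3228 arrays in the Consortium for Functional Glycomics database, restricted to those with a known protein sequence. Scores were averaged over arrays of the same protein sequence at different concentrations or buffers, and over linkers, and negative values can be taken as non-binding.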
# Fuc(a1-2)Gal(b1-3)GalNAc = molecular target: Fuc(a1-2)Gal(b1-3)GalNAc
# In short: as §1
# [1] = molecular target: Fuc(a1-2)Gal(b1-3)GalNAc(a1-3)[Fuc(a1-2)]Gal(b1-4)Glc
# In short: as §1
# [2] = molecular target: Fuc(a1-2)Gal(b1-3)GalNAc(a1-3)[Fuc(a1-2)]Gal(b1-4)GlcNAc
# In short: as §1
# [3] = molecular target: Fuc(a1-2)Gal(b1-3)GalNAc(b1-3)Gal
# In short: as §1
# [4] = molecular target: Fuc(a1-2)Gal(b1-3)GalNAc(b1-3)Gal(a1-4)Gal(b1-4)Glc
# In short: as §1
# [5] = molecular target: Fuc(a1-2)Gal(b1-3)GalNAc(b1-4)[Neu5Ac(a2-3)]Gal(b1-4)Glc
# In short: as §1
# Fuc(a1-2)Gal(b1-3)GlcNAc = molecular target: Fuc(a1-2)Gal(b1-3)GlcNAc
# In short: as §1
# [6] = molecular target: Fuc(a1-2)Gal(b1-3)GlcNAc(b1-2)Man(a1-3)[Fuc(a1-2)Gal(b1-3)GlcNAc(b1-2)Man(a1-6)]Man(b1-4)GlcNAc(b1-4)GlcNAc
# In short: as §1
# [7] = molecular target: Fuc(a1-2)Gal(b1-3)GlcNAc(b1-2)Man(a1-3)[Fuc(a1-2)Gal(b1-3)GlcNAc(b1-2)Man(a1-6)]Man(b1-4)GlcNAc(b1-4)[Fuc(a1-6)]GlcNAc
# In short: as §1
# [8] = molecular target: Fuc(a1-2)Gal(b1-3)GlcNAc(b1-3)Gal(b1-4)Glc
# In short: as §1
# [9] = molecular target: Fuc(a1-2)Gal(b1-3)GlcNAc(b1-3)GalNAc
# In short: as §1
# [10] = molecular target: Fuc(a1-2)Gal(b1-3)GlcNAc(b1-3)[Fuc(a1-2)Gal(b1-3)GlcNAc(b1-6)]GalNAc
# In short: as §1
# [11] = molecular target: Fuc(a1-2)Gal(b1-3)GlcNAc(b1-3)[Gal(b1-4)GlcNAc(b1-6)]Gal(b1-4)Glc
# In short: as §1
# [12] = molecular target: Fuc(a1-2)Gal(b1-3)GlcNAc(b1-3)[Neu5Ac(a2-6)Gal(b1-4)GlcNAc(b1-6)]Gal(b1-4)Glc
# In short: as §1
# [13] = molecular target: Fuc(a1-2)Gal(b1-3)GlcNAc6S
# In short: as §1
# [14] = molecular target: Fuc(a1-2)Gal(b1-3)[Fuc(a1-4)]GlcNAc
# In short: as §1
# [15] = molecular target: Fuc(a1-2)Gal(b1-3)[Fuc(a1-4)]GlcNAc(b1-2)Man(a1-3)[Fuc(a1-2)Gal(b1-3)[Fuc(a1-4)]GlcNAc(b1-2)Man(a1-3)]Man(b1-4)GlcNAc(b1-4)GlcNAc
# In short: as §1
# [16] = molecular target: Fuc(a1-2)Gal(b1-3)[Fuc(a1-4)]GlcNAc(b1-2)Man(a1-3)[Fuc(a1-2)Gal(b1-3)[Fuc(a1-4)]GlcNAc(b1-2)Man(a1-6)]Man(b1-4)GlcNAc(b1-4)[Fuc(a1-6)]GlcNAc(b1-4)[Fuc(a1-6)]GlcNAc
# In short: as §1
# [17] = molecular target: Fuc(a1-2)Gal(b1-3)[Fuc(a1-4)]GlcNAc(b1-3)[Fuc(a1-3)[Gal(b1-4)]GlcNAc(b1-6)]Gal(b1-4)Glc
# In short: as §1
# [18] = molecular target: Fuc(a1-2)Gal(b1-3)[Fuc(a1-4)]GlcNAc(b1-3)[Gal(b1-4)GlcNAc(b1-6)]Gal(b1-4)Glc
# In short: as §1
# [19] = molecular target: Fuc(a1-2)Gal(b1-4)Fuc(a1-3)]GlcNAc(b1-2)Man(a1-3)[Fuc(a1-2)Gal(b1-4)[Fuc(a1-3)]GlcNAc(b1-2)Man(a1-6)]Man(b1-4)GlcNAc(b1-4)GlcNAc
# In short: as §1
# Fuc(a1-2)Gal(b1-4)Glc = molecular target: Fuc(a1-2)Gal(b1-4)Glc
# In short: as §1
# Fuc(a1-2)Gal(b1-4)Glc6S = molecular target: Fuc(a1-2)Gal(b1-4)Glc6S
# In short: as §1
# Fuc(a1-2)Gal(b1-4)GlcNAc = molecular target: Fuc(a1-2)Gal(b1-4)GlcNAc
# In short: as §1
# [20] = molecular target: Fuc(a1-2)Gal(b1-4)GlcNAc(b1-2)Man
# In short: as §1
# [21] = molecular target: Fuc(a1-2)Gal(b1-4)GlcNAc(b1-2)Man(a1-3)[Fuc(a1-2)Gal(b1-4)GlcNAc(b1-2)Man(a1-6)]Man(b1-4)GlcNAc(b1-4)GlcNAc
# In short: as §1
# [22] = molecular target: Fuc(a1-2)Gal(b1-4)GlcNAc(b1-2)Man(a1-3)[Fuc(a1-2)Gal(b1-4)GlcNAc(b1-2)Man(a1-6)]Man(b1-4)GlcNAc(b1-4)[Fuc(a1-6)]GlcNAc
# In short: as §1
# [23] = molecular target: Fuc(a1-2)Gal(b1-4)GlcNAc(b1-2)[Fuc(a1-2)Gal(b1-4)GlcNAc(b1-4)]Man(a1-3)[Fuc(a1-2)Gal(b1-4)GlcNAc(b1-2)Man(a1-6)]Man(b1-4)GlcNAc(b1-4)GlcNAc
# In short: as §1
# [24] = molecular target: Fuc(a1-2)Gal(b1-4)GlcNAc(b1-3)Gal(b1-4)GlcNAc
# In short: as §1
binder,measurement,setting,value
B1,glycan array binding signal (z-score),Fuc(a1-2)Gal,-0.338
same,glycan array binding signal (z-score),Fuc(a1-2)Gal(b1-3)GalNAc,-0.294
same,glycan array binding signal (z-score),[1],0.819
same,glycan array binding signal (z-score),[2],-0.011
same,glycan array binding signal (z-score),[3],-0.08
same,glycan array binding signal (z-score),[4],-0.455
same,glycan array binding signal (z-score),[5],-0.446
same,glycan array binding signal (z-score),Fuc(a1-2)Gal(b1-3)GlcNAc,-0.279
same,glycan array binding signal (z-score),[6],0.589
same,glycan array binding signal (z-score),[7],0.115
same,glycan array binding signal (z-score),[8],-0.225
same,glycan array binding signal (z-score),[9],-0.589
same,glycan array binding signal (z-score),[10],0.198
same,glycan array binding signal (z-score),[11],-0.078
same,glycan array binding signal (z-score),[12],-0.118
same,glycan array binding signal (z-score),[13],-0.083
same,glycan array binding signal (z-score),[14],0.032
same,glycan array binding signal (z-score),[15],0.467
same,glycan array binding signal (z-score),[16],2.15
same,glycan array binding signal (z-score),[17],-0.246
same,glycan array binding signal (z-score),[18],-0.191
same,glycan array binding signal (z-score),[19],3.11
same,glycan array binding signal (z-score),Fuc(a1-2)Gal(b1-4)Glc,-0.572
same,glycan array binding signal (z-score),Fuc(a1-2)Gal(b1-4)Glc6S,0.488
same,glycan array binding signal (z-score),Fuc(a1-2)Gal(b1-4)GlcNAc,-0.508
same,glycan array binding signal (z-score),[20],-0.301
same,glycan array binding signal (z-score),[21],1.11
same,glycan array binding signal (z-score),[22],0.705
same,glycan array binding signal (z-score),[23],1.06
same,glycan array binding signal (z-score),[24],-0.056

# Taken from the entries so far for reference:
binder,measurement,setting,value
B1,glycan array binding signal (z-score),[13],-0.083
same,glycan array binding signal (z-score),[14],0.032
